No constants are given. Whether binding was seen depends on the method and setting. Binding seen in cells or lysates may run through a third protein. Some binding calls cover weakened binding; strength is not graded here. Tags and fused reporters may be left off the sequences shown.
Target: T1, zinc finger protein 692 (ZNF692), Flag-tagged (UniProt Q9BU19)
T1 sequence: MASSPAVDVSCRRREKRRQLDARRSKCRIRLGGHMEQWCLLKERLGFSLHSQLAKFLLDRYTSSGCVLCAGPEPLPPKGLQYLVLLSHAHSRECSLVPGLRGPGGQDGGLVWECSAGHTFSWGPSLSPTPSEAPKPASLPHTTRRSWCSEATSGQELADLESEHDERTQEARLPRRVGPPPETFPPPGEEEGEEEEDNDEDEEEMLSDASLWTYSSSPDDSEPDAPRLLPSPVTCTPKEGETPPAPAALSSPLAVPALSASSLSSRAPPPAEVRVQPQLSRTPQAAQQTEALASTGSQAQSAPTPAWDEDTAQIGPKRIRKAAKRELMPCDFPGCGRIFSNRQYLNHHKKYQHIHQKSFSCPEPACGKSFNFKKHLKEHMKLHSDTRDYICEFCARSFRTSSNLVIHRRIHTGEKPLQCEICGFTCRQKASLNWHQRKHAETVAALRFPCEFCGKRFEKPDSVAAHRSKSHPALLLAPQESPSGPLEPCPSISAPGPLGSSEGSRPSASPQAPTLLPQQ
Assay: co-IP; anti-Flag (DDDDK-Tag) magnetic beads on lysate of 293T cells stably expressing Flag-ZNF692; high salt lysis buffer (20 mM HEPES pH 7.4, 350 mM NaCl, 1% NP-40, 0.5% Triton X-100), 4 °C overnight, three washes with lysis buffer; western blotting

Amino acid sequences for entries named in this document (tags omitted).
UniProt Q99814: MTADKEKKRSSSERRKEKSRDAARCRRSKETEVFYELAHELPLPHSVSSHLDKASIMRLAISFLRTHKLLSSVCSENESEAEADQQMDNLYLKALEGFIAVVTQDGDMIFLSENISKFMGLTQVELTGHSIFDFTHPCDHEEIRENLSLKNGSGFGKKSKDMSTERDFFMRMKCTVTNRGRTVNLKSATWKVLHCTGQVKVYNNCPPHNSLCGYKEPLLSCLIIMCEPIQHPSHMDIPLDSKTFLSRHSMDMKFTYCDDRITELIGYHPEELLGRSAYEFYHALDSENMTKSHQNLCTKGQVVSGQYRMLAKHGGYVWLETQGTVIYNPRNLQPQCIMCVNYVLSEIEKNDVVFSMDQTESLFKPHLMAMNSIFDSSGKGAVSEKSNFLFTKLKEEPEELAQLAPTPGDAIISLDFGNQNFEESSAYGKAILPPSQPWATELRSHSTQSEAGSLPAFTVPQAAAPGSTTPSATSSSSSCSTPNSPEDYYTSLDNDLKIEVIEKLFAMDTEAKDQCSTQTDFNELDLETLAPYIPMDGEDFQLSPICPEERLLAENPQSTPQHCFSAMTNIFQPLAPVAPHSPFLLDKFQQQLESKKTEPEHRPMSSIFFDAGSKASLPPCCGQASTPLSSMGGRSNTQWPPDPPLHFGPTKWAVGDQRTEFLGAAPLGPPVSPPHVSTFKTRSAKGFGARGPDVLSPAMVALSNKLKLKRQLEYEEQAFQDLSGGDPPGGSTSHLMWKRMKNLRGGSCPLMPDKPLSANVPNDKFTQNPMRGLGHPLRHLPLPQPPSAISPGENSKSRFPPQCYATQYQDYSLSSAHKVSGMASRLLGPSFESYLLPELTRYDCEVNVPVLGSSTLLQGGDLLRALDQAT

## HIF-2α (from UniProt Q99814 1-870)
  binding: binds
